Test results taken from US20150329644A1.
Results are given in words; binding and its absence hold for the method and conditions named. Some results given as binding are weak or reduced against the parent protein; the word gives no strength. Where a sequence is shown, tags or fusion partners need not be part of it.

By UniProt entry, the sequences of proteins in these tests, tags left out. Where a name states a change or a piece, a line headed by the entry shows the natural chain unless it says otherwise.
UniProt Q49A26: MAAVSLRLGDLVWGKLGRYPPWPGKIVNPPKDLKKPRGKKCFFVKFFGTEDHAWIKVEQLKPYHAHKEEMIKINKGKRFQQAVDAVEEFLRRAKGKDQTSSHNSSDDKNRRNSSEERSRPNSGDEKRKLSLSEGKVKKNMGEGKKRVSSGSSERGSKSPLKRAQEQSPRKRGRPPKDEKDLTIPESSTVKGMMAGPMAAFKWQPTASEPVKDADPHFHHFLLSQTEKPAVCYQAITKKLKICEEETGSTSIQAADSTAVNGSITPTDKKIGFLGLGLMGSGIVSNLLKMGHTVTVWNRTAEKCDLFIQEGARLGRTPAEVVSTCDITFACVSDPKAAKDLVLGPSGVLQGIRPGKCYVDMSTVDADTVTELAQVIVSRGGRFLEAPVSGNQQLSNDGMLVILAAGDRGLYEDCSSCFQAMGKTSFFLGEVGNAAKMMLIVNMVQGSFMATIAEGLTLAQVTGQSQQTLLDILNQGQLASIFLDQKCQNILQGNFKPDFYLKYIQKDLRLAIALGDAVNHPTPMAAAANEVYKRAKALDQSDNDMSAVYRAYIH

Assays:
[1] = target: T1, FLAG-HA tagged LSD2 bait protein (stably expressed in HeLa, tandem affinity purified) (human) (UniProt Q8NB78); assay: immunoblot of tandem affinity purified LSD2 and LSD1 complexes (FIG. 13B; association in a complex)
T1 sequence (looked up): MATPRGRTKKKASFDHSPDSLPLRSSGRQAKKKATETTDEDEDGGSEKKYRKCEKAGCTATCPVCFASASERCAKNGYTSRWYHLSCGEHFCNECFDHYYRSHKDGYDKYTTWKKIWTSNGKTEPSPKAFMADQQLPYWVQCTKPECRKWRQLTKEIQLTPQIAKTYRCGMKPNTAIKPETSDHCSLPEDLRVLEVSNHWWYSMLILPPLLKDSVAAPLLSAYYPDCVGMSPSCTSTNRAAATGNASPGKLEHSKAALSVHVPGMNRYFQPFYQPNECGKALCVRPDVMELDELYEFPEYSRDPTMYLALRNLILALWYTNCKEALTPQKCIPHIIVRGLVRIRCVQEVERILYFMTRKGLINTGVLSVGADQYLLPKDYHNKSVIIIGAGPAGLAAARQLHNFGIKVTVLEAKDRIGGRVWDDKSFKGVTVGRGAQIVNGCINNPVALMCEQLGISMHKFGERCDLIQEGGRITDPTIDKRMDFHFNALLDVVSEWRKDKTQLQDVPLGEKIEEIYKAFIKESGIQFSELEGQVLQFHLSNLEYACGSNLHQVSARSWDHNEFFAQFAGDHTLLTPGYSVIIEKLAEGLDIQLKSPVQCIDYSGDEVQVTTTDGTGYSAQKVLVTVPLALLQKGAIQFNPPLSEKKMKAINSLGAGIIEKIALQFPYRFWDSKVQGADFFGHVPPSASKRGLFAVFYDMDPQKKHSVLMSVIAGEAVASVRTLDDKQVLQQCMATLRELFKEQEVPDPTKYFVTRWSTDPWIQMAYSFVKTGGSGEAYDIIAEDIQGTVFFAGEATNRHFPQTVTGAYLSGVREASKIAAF

[2] = target: T1, FLAG-HA tagged LSD2 bait protein (stably expressed in HeLa, tandem affinity purified) (human); assay: immunoblot of tandem affinity purified LSD2 complex (FIG. 1B; association in a complex)
[3] = target: T1, FLAG-HA tagged LSD2 bait protein (stably expressed in HeLa, tandem affinity purified) (human); assay: immunoblot of tandem affinity purified LSD2 complex from HeLa (association in a complex)

- binding [1]: binds
- binding [2]: binds
- binding [3]: binds
Substance: Endogenous NPAC (human cells) (from UniProt Q49A26 1-553)
